Measurements as given in PubChem BioAssay AID2685 (National Center for Advancing Translational Sciences (NCATS), 2010).
This is one part of the list. Shown are side measurements of this screen, not its main read-out; they come without a call. The list favours compounds with an active or inconclusive main result. Words in brackets tell the shape of the fitted curve; partial curves, single points and poor fits give uncertain potencies.

Experiment: qHTS Assay for Lipid Storage Modulators in Drosophila S3 Cells;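 as to cell number change: cells counted by Cell Tracker Red CMTPX staining in the red channel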
Conditions: BODIPY lipid droplet fluorescence, 18-24 h; for cell number change: measured here: cell count max response, cells fed with added oleic acid
Method in brief: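 Drosophila S3 cells got compounds at several concentrations plus oleic acid (400 uM solution). Laser-scanning cytometry with 488 nm excitation read lipid droplets at 500-530 nm and cells at 575-640 nm. Percent activity was relative to 20 uM Triacsin C.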

[1] = measured here: cell number channel AC50, cells fed with added oleic acid
[2] = measured here: lipid fluorescence (Fed channel) AC50, cells fed with added oleic acid

Row | SMILES | cell number change [%] | AC50 [1] | AC50 [2]
1 | CCN(CC)S(=O)(=O)c1ccc(C(=O)Nc2ccc(Cc3ccncc3)cc2)cc1 | -41.9 | 10.3 µM [falling, partial curve] | 13 µM [falling, partial curve]
2 | COc1ccc(NS(=O)(=O)c2cccc(C(=O)N3CCN(c4ccccc4O)CC3)c2)cc1 | – | – | 4.61 µM [rising, partial curve]
3 | O=C(c1ccccc1)N1CCN2C(=O)c3ccccc3C12c1ccc(Cl)cc1 (stereo not drawn) | -8.17 | – | 3.66 µM [rising, partial curve]
4 | O=C(NCCN1CCOCC1)c1ccc(Cl)c([N+](=O)[O-])c1 | 32.8 | 29.1 µM [rising, single point] | –
5 | CS(=O)(=O)N(CCC(=O)O)Cc1ccccc1 | -0.787 | – | 0.0103 µM [falling, full curve]
6 | CCOC(=O)N1CCN(Cc2cccs2)CC1 | -1.65 | – | 4.11 µM [falling, single point]
7 | CN(Cc1cn(C)nc1-c1ccc(Oc2ccccc2)cc1)Cc1cnc2ccccn12 | -20.4 | – | –
8 | COC(=O)[C@@H]1C[C@@]2(O)[C@@H](O)[C@@H](O)[C@@H](O)C[C@H]2N1Cc1ccc(-c2ccccc2)cc1 | -24.2 | – | 1.84 µM [falling, full curve, poor fit]
9 | Cc1ccc(S(=O)(=O)N2CCN(C(=O)CSc3nnc(C)s3)C2)cc1 | -26.3 | 0.326 µM [falling, full curve] | 1.3 µM [falling, full curve]
10 | O=C(CN1CCN(Cc2ccccc2)CC1)N1CCCc2ccccc21 | 19.2 | – | 5.17 µM [rising, partial curve, poor fit]
11 | O=C1NCCCc2c1oc1ccc(O)cc21 | -45 | 14.6 µM [falling, partial curve, poor fit] | –
12 | CC(C)CNC(=O)COCc1cc(-c2ccc3c(c2)OCO3)on1 | – | – | 2.31 µM [rising, single point]
13 | CC/C(=N\NC(=O)c1c(C)nc2ccccn12)c1ccc(Cl)cc1 | -38.9 | – | 29.1 µM [rising, single point]
14 | Cc1ccc(N2CC(C(=O)Nc3cccc(F)c3)CC2=O)cc1 (stereo not drawn) | 1.52 | – | 0.731 µM [falling, full curve, poor fit]
15 | CC12C(=O)N(c3ccccn3)C(=O)C1C1C=CC2C1 (stereo not drawn) | 1.66 | – | 3.26 µM [falling, full curve, poor fit]
16 | O=C(NCCCN1CCCC1=O)c1cccc(NS(=O)(=O)c2ccccc2)c1 | 17.2 | – | 29.1 µM [rising, single point]
17 | CN(Cc1ccccc1)C(=O)c1ccc(NC(=O)Cc2cccc(NC(=O)C3CCCN(C(=O)CCc4ccccc4)C3)c2)cc1 (stereo not drawn) | -39.2 | 14.6 µM [falling, single point] | 7.31 µM [falling, single point]
18 | COc1ccccc1NC(=O)CCSc1nc(C)cs1 | -0.552 | – | 0.103 µM [rising, full curve, poor fit]
19 | Cc1ccc(CC2S/C(=N/N=C/c3ccco3)NC2=O)cc1 (stereo not drawn) | -102 | 29.1 µM [falling, partial curve, poor fit] | 29.1 µM [falling, single point]

Row | SMILES | cell number change [%] | AC50 [1] | AC50 [2]
20 | CCOC(=O)/C(C#N)=C/c1cc2ccccc2nc1N1CCOCC1 | -2.73 | – | 1.16 µM [falling, full curve, poor fit]
21 | COc1ccc(C)cc1NC(=O)C1CCN(S(=O)(=O)c2ccccc2)CC1 | -22.9 | – | 3.26 µM [falling, full curve]
22 | CCNC(=S)Nc1ccc(OCc2nc3ccccc3s2)cc1 | -9.12 | – | 29.1 µM [falling, single point]
23 | Cc1ccc(Cn2c(=N)c(S(=O)(=O)c3ccc(C)cc3)cc3c(=O)n4ccccc4nc32)cc1 | -3.4 | 0.82 µM [falling, partial curve] | –
24 | S=C(NCCN1CCOCC1)Nc1ccc(-c2nc3ccccc3[nH]2)cc1 | 62.2 | 16.4 µM [rising, single point] | –
25 | Cn1c(N)c(C(=O)CSc2nc(C3CC3)n(-c3ccccc3)n2)c(=O)n(C)c1=O | -9.34 | – | 4.11 µM [falling, partial curve, poor fit]
26 | O=c1c2cc(Br)ccc2[nH]c(=S)n1Cc1ccccn1 | 10.9 | – | 0.164 µM [falling, partial curve, poor fit]
27 | CN(C)C(=O)Oc1ccc[n+](C)c1 | 3.52 | – | 1.64 µM [falling, partial curve]
28 | NC(=O)c1ccsc1NC(=O)COC(=O)c1ccncc1 | -17.5 | 0.461 µM [falling, partial curve, poor fit] | –
29 | O=C(O)c1ccc(NC(=S)NC(=O)c2ccc3ccccc3c2)cc1 | 8.19 | – | 0.00461 µM [rising, full curve, poor fit]
30 | O=S(=O)(NCC(c1ccc2c(c1)OCO2)N1CCOCC1)c1ccccc1 (stereo not drawn) | 112 | 29.1 µM [rising, single point] | 8.2 µM [rising, partial curve, poor fit]
31 | CCCn1c(N)c(N(CCOC)C(=O)CSCC(=O)Nc2ccc(OC)cc2)c(=O)[nH]c1=O | 2.94 | 6.51 µM [falling, single point] | 6.51 µM [falling, single point]
32 | COc1c(N)c2ccccc2[nH]c1=O | – | – | 4.11 µM [falling, partial curve, poor fit]
33 | O=C(CN1C(=O)CCS(=O)(=O)c2ccccc21)NCCc1ccccc1 | 11 | – | 0.651 µM [rising, single point]
34 | O=C(CCc1ccccc1)Nc1cc2c(cc1Cl)OCCO2 | -3.17 | – | 8.2 µM [rising, partial curve]
35 | CCOc1ccc(C(C(=O)Nc2ccc(F)cc2)N(C(=O)Cn2nnc3ccccc32)C2CC2)cc1 (stereo not drawn) | 6.32 | – | 0.00517 µM [rising, full curve, poor fit]
36 | CCn1c2ccccc2c2cc(NC(=O)Cc3ccc(S(=O)(=O)N4CCOCC4)s3)ccc21 | -41.4 | 29.1 µM [falling, single point] | 29.1 µM [falling, single point]
37 | CC(C)N(Cc1nccn1C)C(=O)c1cc(COc2ccc3ncccc3c2)on1 | -19.7 | – | 16.4 µM [falling, single point]
38 | CCN(CC)c1ccc2ccc(=O)oc2c1 | 1.45 | – | 4.11 µM [rising, partial curve, poor fit]

Copied from the list:
COC(=O)[C@@H]1C[C@@]2(O)[C@@H](O)[C@@H](O)[C@@H](O)C[C@H]2N1Cc1ccc(-c2ccccc2)cc1 – cell number change [%]: -24.2
COc1ccc(C)cc1NC(=O)C1CCN(S(=O)(=O)c2ccccc2)CC1 – cell number change [%]: -22.9

The list goes on.

Row | SMILES | cell number change [%] | AC50 [1] | AC50 [2]
39 | CC1(C)Cc2c(sc3c2C2=NCCN2C=N3)CO1 | 7.51 | – | –
40 | CCN(Cc1nc2ccccc2c(=O)[nH]1)C(=O)COc1ccccc1-c1ccccc1 | 30 | – | 23.1 µM [rising, partial curve, poor fit]
41 | O=S(=O)(NCc1ccc(F)cc1)c1ccc(Br)cc1Br | -46.9 | 14.6 µM [falling, partial curve, poor fit] | 0.184 µM [rising, full curve, poor fit]
42 | c1ccc(Oc2cccc(CN3CCCCC3)c2)cc1 | -15.6 | – | 0.461 µM [falling, full curve]
43 | O=C(CN1C(=O)CCC1=O)Nc1ccc(Cc2ccc(NC(=O)CN3C(=O)CCC3=O)cc2)cc1 | 6.18 | 6.51 µM [rising, single point] | –
44 | O=C(Nc1ccc(Cl)cn1)c1ccccc1SCc1ccccc1 | -26.1 | – | 29.1 µM [falling, single point]
45 | O=C(CCc1nnc(CCCc2ccccc2)o1)N1CCCCCC1 | – | – | 29.1 µM [falling, single point]
46 | CN1CCN(CCCNC(=O)c2cc3c(=O)n(C)c4ccccc4c3s2)CC1 | -6.73 | – | 0.411 µM [rising, full curve, poor fit]
47 | O=C(Nc1cccc(NC(=O)c2ccccc2F)c1)c1ccccc1 | 33.8 | 29.1 µM [rising, single point] | –
48 | Cc1cccc(-n2ccnc2CN2CCC(CO)(Cc3ccccc3)CC2)c1 | 16.3 | – | 29.1 µM [rising, single point]
49 | Cn1c(=O)c(=O)n(C)c2cc(S(=O)(=O)N3CCN(c4ccc(F)cc4)CC3)ccc21 | 42.1 | 23.1 µM [rising, single point] | 16.4 µM [rising, single point]
50 | Cc1ccc(S(=O)(=O)N2CCOCC2)cc1NC(=O)CSc1nnc2cc(C)c3ccccc3n12 | -19.5 | 0.092 µM [rising, full curve, poor fit] | –
51 | CNS(=O)(=O)c1cccc(C(=O)OCC(=O)Nc2ccc(Cl)cc2F)c1 | -8.96 | – | 0.58 µM [falling, single point]
52 | CCCOc1ccc(/C=C/C(=O)O)cc1OC | -11 | 0.82 µM [falling, full curve, poor fit] | –
53 | COC(=O)N/N=C/c1ccc(-c2cc(Cl)cc(Cl)c2)o1 | -22 | – | 29.1 µM [rising, single point]
54 | O=C(N1CCOCC1)N1CCN(c2nc(-c3ccc(F)cc3)cs2)CC1 | 1.36 | – | 20.6 µM [rising, single point]
55 | CCc1nnc(NC(=O)c2ccc(S(=O)(=O)N(CC(C)C)CC(C)C)cc2)o1 | -39.5 | 16.4 µM [falling, partial curve] | 16.4 µM [falling, partial curve]
56 | Cc1ccc(CN(C)CC(=O)Nc2ccccc2C(=O)NC2CC2)o1 | 1.07 | – | 25.9 µM [rising, single point]
57 | CC(C)OCc1ccc(C(=O)N2CCN(S(=O)(=O)c3ccc(Br)s3)CC2)cc1 | -15.6 | – | 29.1 µM [falling, single point]
